Source: ChEMBL document CHEMBL3988442, “University of Dundee, Small-Polar-MMV Screening Library” (2021).

Mtb cholesterol medium: 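Whole-cell growth test on Mycobacterium tuberculosis, read after 4 days in a medium based on cholesterol and the lipid DPPC; the read-out is not stated. Compounds at 50 µM. The record gives no direction; compounds that gave an IC50 in retests scored well above the rest, so higher reads as more growth inhibition. About 69,000 compounds were tested under these conditions; 0.54% (about 370) showed 50% or more at least once.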
Mtb glucose medium: 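Growth of Mycobacterium tuberculosis over 3 days (7H9 medium with glucose and tyloxapol); the read-out is not stated. Concentration: 50 µM. Higher reads as more growth inhibition (inferred: compounds with an IC50 in retests scored well above the rest). Of about 69,000 compounds tested this way, about 760 (1.1%) reached 50% or more in at least one test.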

Values are the deposited “Percent Effect”, in %.
The controls that fix the scale are not given in the record; negative values are as filed.
The compounds are a random part of those screened.
Two or more numbers in one place are separate tests of the same structure; such repeats can differ widely.

* CC1CCN(c2ncc3c(n2)CN(c2ccc(F)cc2)C3=O)CC1 | Mtb cholesterol medium: 0.7612%; Mtb glucose medium: 35.71%
* CCc1nccc(CN2CCCC(c3nn(C)c(=O)n3CC)C2)n1 (stereo not drawn) | Mtb cholesterol medium: 1.828%; Mtb glucose medium: 25.51%
* [H][C@]12CN(Cc3cccc(C#N)c3)CC[C@@]1(O)CCN(S(=O)(=O)N(C)C)C2 | Mtb cholesterol medium: -20.18%; Mtb glucose medium: -27.41%
* Cc1nc(-c2ccc(Cl)s2)sc1C(=O)NC(C)(C)C(N)=O | Mtb cholesterol medium: 1.357%; Mtb glucose medium: -19.84%
* CNC(=O)CC1CCN(C(=O)NCc2coc3ccccc23)CC1 | Mtb cholesterol medium: 13.51%; Mtb glucose medium: 9.181%
* CC(C)C(N)CNS(=O)(=O)Cc1cccc2cccnc12.Cl (stereo not drawn) | Mtb cholesterol medium: 23.16%; Mtb glucose medium: 25.1%
* CCc1cc(=O)n(CC(=O)N2CCCC2)c(-c2cccc(F)c2)n1 | Mtb cholesterol medium: 3.814%; Mtb glucose medium: 10.21%
* CC(C)CNC(=O)CNC(=O)c1nc(Cc2c(Cl)cccc2Cl)no1 | Mtb cholesterol medium: -0.9731%; Mtb glucose medium: 4.88% & -2.943%
* O=C(O)C(F)(F)F.[H][C@@]12COC[C@]1(COCC1CCOCC1)CN(C1CCC1)C2 | Mtb cholesterol medium: 9.622%; Mtb glucose medium: 37.97%
* O=C(CC1OCCc2ccccc21)NCC1(O)CCCCC1 (stereo not drawn) | Mtb cholesterol medium: -8.934%; Mtb glucose medium: 4.526%
* CCN(CC)C(=O)CCNC(=O)c1ccccc1N1CCOCC1 | Mtb cholesterol medium: -15.38% & -4.989%; Mtb glucose medium: -18.38%
* Cc1cc2[nH]c(=O)c(=O)[nH]c2cc1S(=O)(=O)NC1CCCCC1 | Mtb cholesterol medium: 4.626%; Mtb glucose medium: -14.05%
* CCc1nc(C2CCCN(C(=O)c3cnn(CC)c3)C2)no1 (stereo not drawn) | Mtb cholesterol medium: -3.681%; Mtb glucose medium: -9.599% & -24.62%
* Nc1nccnc1C1CN(C(=O)COc2cccnc2)CCO1 (stereo not drawn) | Mtb cholesterol medium: -18.78%; Mtb glucose medium: 10.1%
* CC(C)Oc1cc(N2CC[C@H](CO)[C@@H](O)C2)nc(N)n1 | Mtb cholesterol medium: -6.973%; Mtb glucose medium: 12.15%
* O=C(O)C[C@@H]1CCN(C(=O)c2cccs2)C[C@@H]1CCN1CCCCC1 | Mtb cholesterol medium: 1.487%; Mtb glucose medium: -2.355% & 19.44%
* CC[C@H]1CN(S(=O)(=O)c2ccccc2)CC[C@H]1CC(=O)O | Mtb cholesterol medium: -23.26%; Mtb glucose medium: -25.67% & -9.127%
* O=C(c1n[nH]cc1Cl)N1CCSCC1 | Mtb cholesterol medium: 11.45%; Mtb glucose medium: 2.836%
* c1cncc(CN2CCCC(Nc3ncnc4c3CCNCC4)C2)c1 (stereo not drawn) | Mtb cholesterol medium: -21.27%; Mtb glucose medium: 5.095%
* Cc1cnn(CC(C)Nc2cnc3ccccc3n2)c1 (stereo not drawn) | Mtb cholesterol medium: -6.959%; Mtb glucose medium: -9.42%
* O=C(c1ccccc1Cl)N1CC[C@H](O)[C@@H](N2CCOCC2)CC1 | Mtb cholesterol medium: -1.692%; Mtb glucose medium: 9.387%
* Cc1nc(CNCC2Cn3nncc3CO2)cs1.O=C(O)C(F)(F)F (stereo not drawn) | Mtb cholesterol medium: -1.119%; Mtb glucose medium: 33.56%
* COc1cc2ncn(Cc3ncc[nH]3)c(=O)c2cc1OC | Mtb cholesterol medium: -10.36%; Mtb glucose medium: 4.252%
* Fc1ccc(-c2nnc(CN3CCOC(Cn4cncn4)C3)o2)cc1 (stereo not drawn) | Mtb cholesterol medium: -7.772%; Mtb glucose medium: 10.67%
* CCCC(=O)N1CCN(CCN(C)C)c2nc(C)ccc2C1.O=C(O)C(F)(F)F.O=C(O)C(F)(F)F | Mtb cholesterol medium: -11.66% & 5.153%; Mtb glucose medium: 5.386%
* COc1ccc(OCC(O)CN2CCN(c3nccs3)CC2)cc1 (stereo not drawn) | Mtb cholesterol medium: 11.58% & 9.681%; Mtb glucose medium: 3.762%
* CC1=C(c2ccc(F)cc2)S(=O)(=O)N=C1N1CCc2ccccc21 | Mtb cholesterol medium: -30.07%; Mtb glucose medium: -15.04%
* Cc1ccccc1CN(Cc1ccc(S(C)(=O)=O)cc1)CC(C)C | Mtb cholesterol medium: 15.07%; Mtb glucose medium: 6.446%
* Cc1nn(C)c(C)c1CNCc1ccc(N2CCOCC2)nc1.Cl | Mtb cholesterol medium: -9.289%; Mtb glucose medium: -29.46%
* COc1cc(C(=O)N2Cc3cnc(C(C)(C)C)nc3C2)ccn1 | Mtb cholesterol medium: -4.588% & -11.17%; Mtb glucose medium: -2.428%
* COCCCN1CC2(CCC1=O)CCN(Cc1cc(C(C)C)no1)CC2 | Mtb cholesterol medium: -31.85% & 6.842%; Mtb glucose medium: -58.33%
* CCS(=O)(=O)N1CCC2(CN(C(=O)c3cscn3)C2)C1 | Mtb cholesterol medium: 0.2379%; Mtb glucose medium: -26.46% & -1.889%
* [H][C@]12CC[C@](O)(CC1)C(CN1CCOCC1)N2C(=O)Nc1ccccc1 (stereo partly drawn) | Mtb cholesterol medium: -5.988%; Mtb glucose medium: -5.351%
* CCOCCNS(=O)(=O)c1ccc2c3c1CCCN3C(=O)CO2 | Mtb cholesterol medium: -8.76%; Mtb glucose medium: -30.16%
* CC(c1ccon1)N(C)Cc1cc(O)c2cc(F)ccc2n1 (stereo not drawn) | Mtb cholesterol medium: -6.145%; Mtb glucose medium: -0.9888%
* Cn1cc(C(=O)CC2CCCN2C(=O)c2c[nH]c3ccccc23)cn1 (stereo not drawn) | Mtb cholesterol medium: 21.24%; Mtb glucose medium: 18.67%
* Cc1ccc(CC(=O)N2CCCC(n3ccnc3C(C)C)C2)cn1 (stereo not drawn) | Mtb cholesterol medium: -11.9%; Mtb glucose medium: 10.18%
* COc1ccc(CCN2CC(n3nc(C)cc3C)C2)cc1 | Mtb cholesterol medium: 16.37%; Mtb glucose medium: 12.07%
* CCN1CCCC1CN(CCN(C)C)S(=O)(=O)c1ccc(C#N)cc1 (stereo not drawn) | Mtb cholesterol medium: 9.772%; Mtb glucose medium: 23.29% & 12.36%
* O=C(CN(Cc1cccs1)c1ccc(F)cc1)NC1CCOCC1 | Mtb cholesterol medium: 5.902%; Mtb glucose medium: 24.16%
* CC(C)c1ncc(CN2CCC(CO)C2)cn1.O=C(O)CC(O)(CC(=O)O)C(=O)O (stereo not drawn) | Mtb cholesterol medium: -16.87%; Mtb glucose medium: -31.23%

Repeated from the top, 4 entries:

SMILES	Mtb cholesterol medium	Mtb glucose medium
CC1CCN(c2ncc3c(n2)CN(c2ccc(F)cc2)C3=O)CC1	0.7612%	35.71%
CCc1nccc(CN2CCCC(c3nn(C)c(=O)n3CC)C2)n1 (stereo not drawn)	1.828%	25.51%
[H][C@]12CN(Cc3cccc(C#N)c3)CC[C@@]1(O)CCN(S(=O)(=O)N(C)C)C2	-20.18%	-27.41%
Cc1nc(-c2ccc(Cl)s2)sc1C(=O)NC(C)(C)C(N)=O	1.357%	-19.84%